Laboratory results published in PMC10869362.

B1: Vacuolar protein sorting 16A (Vps16A), endogenous in S2 cells (protein, UniProt Q9VHG1 1-833)
chain: MPIMYNTGEWFKVRPDYYRKVELATPDWPLDLDLEYMWVEVAPYGGPLAVTRDPTKLVPVKGNARPMIRIFDTTGREMGHILWNHGKLIAMGWSDMEELICIQENATVFVYDMFGREKESYSIGDEASVTKIVEGKVFQSSAGTGVAVMTTSGRVFLKQNSSKTERKLPDIPNSSMNCSCWEIVTEGRNSYCLLGRDREVIKLFPGETVGTITANLFEKPHERIIKISVSYNHQHLALYTNTGLLWLGSVDMRQKYCEFDTGRKDMPLQMEWIMNSDNSEADAVVISYPSYLLIVNRNADRSDFPYDPVMFLVAEMDGVRIITQSSHEIIQRLPKCVENIFAVNSQEPASYLFEAQKKFEEKSYKSDEYLSMCREKIDLAVSECIEAASYEFCPETQKSLLRTAYFGKGFIRNHNPDEYMRIMRILRVLNTLRHERIAMPITFKQFSHLNTEVILSRLVFRKHYAIAIQVAKHLNLPESWILEHWAYHKVMNDPNDTEVARKITEKFKNPSVEGISFCNIASKAHQAGRDDLAIKLLELESRASLHVPLLLKMRKFDRAVGSATQSGDTELITQVLLEMKMHMMLSNLHMTIRDHPLALNIYKKIMRESNRAGLYGIYNTEDDQKAIAEYHFQNAIETEGLESNLSMIGNAYAQGRCTLEAELCADTSRLIKLQKTLSTKYNVSLNGLSIHETIQELLLIGELKEAERIRSEFKVPDRRFWWLRILTLSSQHKWEELEKLAKSKKSPIGYDPFVEVCLKQDNVMEARKYIPRCRDNRRVVWYMRANLFNEAIDSAFEQRDVHSLFELQKNQAIVNNGTLLSKVCDCIAMLEGK
B2: deep orange (dor), endogenous in S2 cells (protein, UniProt Q24314 1-1002)
chain: MDTSMPNQPKFLPRIEHNSSGATANSYVATASGNPFETDEEDEIFSRHKMVLRVPSNCTGDLMHLAVSRNWLVCLLGTPERTTLLRFFLPRAIPPGEAVLEKYLSGSGYKITRMFLDPTGHHIIIALVPKSATAGVSPDFLYIHCLESPQAQQLKVRRIEKFKDHEITAVAFNPYHGNESSTGPILLGTSRGLIFETELNPAADGHVQRKQLYDLGLGRPKYPITGLKLLRVPNSSRYIIVVTSPECIYTFQETLKAEERSLQAIFAGYVSGVQEPHCEERKTDLTFSQLRFFAPPNSKYPKQWAWLCGEGIRVGELSIEANSAATLIGNTLINLDFEKTMHLSYGERRLNTPKAFVLTEYHAVLLYADHVRAICLLNQEQVYQEAFDEARVGKPLSIERDELTGSIYVYTVKTVFNLRVTREERNVWRIYLDKGQYELATAHAAEDPEHLQLVLCQRADAAFADGSYQVAADYYAETDKSFEEVCLKFMVLPDKRPIINYVKKRLSRVTTKPMETDELDEDKMNIIKALVIWLIDLYLIQINMPDKDEEWRSSWQTEYDEFMMEAHVLSCTRQNRETVRQLIAEHADPRNMAQFAIAIGDYDEVVAQQLKAECYAEALQTLINQRNPELFYKYAPELITRLPKPTVDALMAQGSRLEVEKLVPTLIIMENREQREQTQRYLEFAIYKLNTTNDAIHNFLLHLYAEHEPKLLMKYLEIQGRDESLVHYDIYYAHKVCTDLDVKEARVFLECMLRKWISAVDLALTFDMKLAKETASRPSDSKIRRKLWLRIAYHDIKGTNDVKKALNLLKECDLLRIEDLLPFFADFEKIDNFKEAICDALRDYNQRIQELQREMAETTEQTDRVTAELQQLRQHSLTVESQDTCEICEMMLLVKPFFIFICGHKFHSDCLEKHVVPLLTKEQCRRLGTLKQQLEAEVQTQAQPQSGALSKQQAMELQRKRAALKTEIEDILAADCLFCGLLISTIDQPFVDDWEQVNVEWE
B3: light (lt), endogenous in S2 cells (protein, UniProt Q7PL76 1-841)
chain: MAKALPLISCDSWADSINEEDVEPKFKYHRLANDLKYMLNADVITCSAVHLKFLIFGTFRGRVCIFDHQGNSVYSNLSASERHTHQVAVNNIDVDHKGEYVATCSDDGKVNITGLFSSDNNHSLSFGKFIKVVSLEPDSKAHIKRFVVGDDKLILYERNLLKKLKPVELCSVEGSVLSICWHGNFIAWASHIGVRVYDLNERCSLGLIKWEVPPQERLENFRCHLRWSNKHTLLIGWVDTIRVCVIRKRNSIEASTGNLPVYIVDPISTFQTTFYVCGLAPLSAKQLVVLGFRKEKSSCFKALRPVLCVIEYKMNNSEEICTDSLTLRGFEEYTVNDYSLGGIIEENRFYIVAPKDIVVASLIETDDRIEWLIKHSKFEEAMELISANGGNVPVLSVAKLYINHLLALKKYDDAAKLCLRMLGNDKVLWEEEVFKFVKCQQLRSVSAYLPTSDECKLDPHVYEMVLYEFLKFDVCGFLNLIKEWPSHLYDGLAVINAIHDNFRKHYANQLLESLALLYSYQGDFESALRMYLKLQNKDVFQLIRRYELYDVISKLIIPLIQLDRDCAFEILLDKKKIKTEIVVHQLEHNQEYLYWYLDSLLKKDPSNVFQKKLISLYAIFDRNKLLPFLKRSKDYDIQEALVICKQENFYPEIVYLLGCMGGVEASEALNIIIHRIRDIEMAIEFCKEHDDSDLWNALINEFSKHPEIVTKVLDGIVDYFSPAVVVGKIKMGQNIPNLRQSLIKMLRHYNLQGEILSSAQQIQLNDYFEIHSEIVTTQRRGQQVSYEQLCSLCHRPVLMAGTHLYCIIRLECGHVYHKPCIQGELLKNCNECNLWKLTVGK

biological target: detour:GFP (GFP-tagged detour, CG14435) (Drosophila) (UniProt Q9W3V3); experiment: affinity purification with mass spectrometry; GFP-Trap_MA beads on soluble extracts of S2 cells expressing detour:GFP or GFP alone, NP-40 lysis buffer, overnight at 4 °C, glycine pH 2.5 elution; three replicates, compared with GFP and with the input

binding, binds:
B1
B2
B3

These are yes or no findings as the source states them, for the method shown. In cells and extracts the contact can be indirect. These calls come from enrichment with a bait or labelling near it, and not all partners need be listed.
